Measurements published in PubChem BioAssay AID651768 (National Center for Advancing Translational Sciences (NCATS), 2012).
Out of some 360,000 compounds screened, about 1,700 (0.47%) were called active. This list was built around the results that the source calls inconclusive (neither active nor inactive); the mix of calls is not that of the screen. Calls come from the whole dose curve; as a rule, active = well fitted inhibition curve with a large enough effect; inconclusive = small, poorly fitted or top-dose-only effect; inactive = no such curve, though single readings can be large or run the other way. A potency beside an inconclusive call is a rough fit, not a confirmed value.

By UniProt entry, the sequences of proteins in these tests, tags left out.
UniProt Q14191, whole entry, looked up: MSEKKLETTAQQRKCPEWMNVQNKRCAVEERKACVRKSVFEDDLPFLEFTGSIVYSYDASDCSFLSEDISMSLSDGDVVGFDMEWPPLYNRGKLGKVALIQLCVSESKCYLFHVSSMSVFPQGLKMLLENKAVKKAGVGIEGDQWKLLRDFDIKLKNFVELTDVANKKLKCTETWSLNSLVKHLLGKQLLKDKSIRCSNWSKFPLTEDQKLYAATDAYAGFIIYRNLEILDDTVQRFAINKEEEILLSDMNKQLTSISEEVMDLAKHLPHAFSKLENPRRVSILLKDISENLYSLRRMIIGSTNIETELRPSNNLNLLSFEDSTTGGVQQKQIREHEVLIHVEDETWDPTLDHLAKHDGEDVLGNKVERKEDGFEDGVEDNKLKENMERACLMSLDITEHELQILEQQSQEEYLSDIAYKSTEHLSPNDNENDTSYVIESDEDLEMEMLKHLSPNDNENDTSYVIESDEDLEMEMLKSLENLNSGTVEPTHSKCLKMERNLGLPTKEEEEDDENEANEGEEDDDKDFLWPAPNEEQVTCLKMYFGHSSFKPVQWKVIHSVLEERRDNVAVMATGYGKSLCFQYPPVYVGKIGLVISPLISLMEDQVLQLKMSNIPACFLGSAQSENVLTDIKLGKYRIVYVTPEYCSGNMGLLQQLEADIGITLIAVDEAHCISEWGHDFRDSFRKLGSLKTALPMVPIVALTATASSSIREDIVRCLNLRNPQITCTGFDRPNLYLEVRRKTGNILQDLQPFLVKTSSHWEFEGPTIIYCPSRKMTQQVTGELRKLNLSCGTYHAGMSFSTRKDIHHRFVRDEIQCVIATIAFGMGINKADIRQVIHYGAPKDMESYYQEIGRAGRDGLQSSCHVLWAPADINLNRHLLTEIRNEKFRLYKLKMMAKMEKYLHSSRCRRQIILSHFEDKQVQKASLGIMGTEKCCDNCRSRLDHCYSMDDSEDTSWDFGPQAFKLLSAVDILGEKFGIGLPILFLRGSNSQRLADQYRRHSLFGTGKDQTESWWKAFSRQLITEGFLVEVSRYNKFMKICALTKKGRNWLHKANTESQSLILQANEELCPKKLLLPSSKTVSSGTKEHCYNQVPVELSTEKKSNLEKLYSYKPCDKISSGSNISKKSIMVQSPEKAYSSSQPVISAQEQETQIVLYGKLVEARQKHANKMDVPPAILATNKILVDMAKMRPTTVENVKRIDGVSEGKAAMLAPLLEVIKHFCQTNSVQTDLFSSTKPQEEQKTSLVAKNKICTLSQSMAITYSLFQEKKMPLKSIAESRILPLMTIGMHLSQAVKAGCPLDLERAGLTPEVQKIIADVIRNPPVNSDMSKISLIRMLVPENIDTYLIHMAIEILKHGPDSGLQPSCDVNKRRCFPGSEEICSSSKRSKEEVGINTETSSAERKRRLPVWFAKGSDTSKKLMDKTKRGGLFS

target: Bifunctional 3'-5' exonuclease/ATP-dependent helicase WRN (Homo sapiens) (UniProt Q14191); test: qHTS for Inhibitors of WRN Helicase; details: WRN helicase unwinding, fluorescent forked duplex, kinetic; activity change, negative = inhibition: at 114 µM (top of the series) unless noted; note: nearly all actives have a fitted effect of over 55% in size
Outline: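 Fluorescence dequenching readout, ex 525 nm/em 598 nm, kinetic mode: forked duplex DNA (100 nM final) with adjacent fluorophore and quencher unwound by WRN (20 nM final) with 2 mM ATP. Compound preincubation 15 min, room temperature.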
% is set by controls: 0 for no effect and ±100 for the full control effect; potency is the fitted concentration of half-maximal effect.

SMILES	activity change, negative = inhibition	Potency
CCN(CC)CCCNC(=O)CNC(=S)N(CCCN1CCOCC1)Cc1cccs1	inactive: 14%	–
O=C(N/N=C/c1ccc(Cl)cc1Cl)c1ccncc1	inactive: -0.0475%	–
COc1cccc2sc(Nc3nc4ccc(NC(C)=O)cc4s3)nc12	–	inconclusive: 22.4 µM [inhibitor, single point]
CN1C2CCC1/C(=C/c1cccn1C)C(=O)/C2=C\c1cccn1C	inactive: -28.7%	–
Cc1cc(C)cc(C(=O)NC(=S)Nc2ccc(Cc3ccncc3)cc2)c1	–	inconclusive: 10 µM [inhibitor, partial curve]
COc1cc(/C=N/Nc2nn3cnnc3c3ccccc23)cc(OC)c1OC	–	inconclusive: 28.2 µM [inhibitor, partial curve]
COc1ccc(-c2cnc3c(NC(C)=O)cc(-c4cccc(C(=O)NCCN(C)C)c4)cn23)cc1OC	–	active: 25.1 µM
O=C(CSc1nc2ccccc2c(=O)[nH]1)Nc1nc(-c2ccc(Br)cc2)cs1	–	inconclusive: 79.4 µM [inhibitor, partial curve]
O=C(Nc1ccccc1C(=O)N/N=C/c1ccco1)c1ccccc1	–	inconclusive: 14.1 µM [inhibitor, single point]
C#CCOCCOCCOCCNc1nc(N2CCN(C(=O)[C@H](Cc3ccc(O)cc3)n3cc([C@@H](N)CC(C)C)nn3)CC2)nc(N2CCN(C(=O)[C@H](Cc3cc4ccccc4[nH]3)n3cc([C@@H](N)CC(C)C)nn3)CC2)n1	–	inconclusive: 56.2 µM [inhibitor, partial curve]
COc1ccc(C(=O)Nc2nc(-c3ccc(OC)cc3)c(-c3ccc([N+](=O)[O-])cc3)s2)cc1	–	inconclusive: 25.1 µM [inhibitor, full curve]
COc1cc(/C=C2/SC(=S)N(c3c(C)n(C)n(-c4ccccc4)c3=O)C2=O)ccc1O	–	inconclusive: 50.1 µM [inhibitor, partial curve]
O=C(O)CSc1ncnc2sc3c(c12)CCCC3	–	inconclusive: 79.4 µM [inhibitor, single point]
Cn1cnnc1-c1cccc(NC(=O)c2cc(F)c(F)cc2Cl)c1	inactive: -1.69%	–
O=C(CCN1CCc2ccccc2C1)c1ccc2c(c1)OCCO2	–	inconclusive: 79.4 µM [inhibitor, partial curve]
CCCCn1c(N)c(N(CC(C)C)C(=O)c2oc3ccc(Br)cc3c2C)c(=O)[nH]c1=O	inactive: 4.15% [at 11.6 µM]	–
Oc1ccc(CCNc2c3ccccc3nc3ccccc23)cc1O	–	active: 50.1 µM
CCOc1cc(/C=C/C(=O)O)ccc1OCc1ccccc1	inactive: 6.09%	–
O=C(Nc1ccc2c(c1)OCO2)N1CCN(Cc2ccco2)CC1	–	inconclusive: 39.8 µM [inhibitor, single point]
Cc1ccc(-n2ccc(=O)c(C(=O)Nc3ccc(S(=O)(=O)Nc4nccs4)cc3)n2)cc1	–	inconclusive: 56.2 µM [inhibitor, partial curve]
COc1ccc2nc(Nc3sc4c(c3C(N)=O)CCCC4)sc2c1	–	inconclusive: 20 µM [inhibitor, single point]
Cc1cc(NC(=O)Nc2cccc(C(F)(F)F)c2)n(C)n1	–	inconclusive: 39.8 µM [inhibitor, single point]
CC12C(=O)N(c3nccs3)C(=O)C1C1C=CC2C1 (centres undefined)	inactive: -33.7%	–

SMILES	activity change, negative = inhibition	Potency
Cn1c(=O)n(C)c2cc(/C=N/NC(=O)c3cc4cc(Br)ccc4o3)ccc21	–	inconclusive: 2.82 µM [inhibitor, full curve, poor fit]
O=C(COc1ccc2ccccc2c1)Nc1ccc(Cc2ccncc2)cc1	inactive: -19% [at 57.1 µM]	–
Cn1c(N)c(C(=O)COC(=O)C2CC(O)CN2S(=O)(=O)c2ccc(Cl)cc2)c(=O)n(C)c1=O (centres undefined)	inactive: 0.243%	–
Cn1c(=O)c2c(nc(Cc3ccc(N)cc3)n2C)n(C)c1=O	inactive: -4.06%	–
O=C1CCCC2=C1C(c1ccncc1)c1c(nc(SCc3ccccc3)[nH]c1=O)N2 (centres undefined)	–	inconclusive: 50.1 µM [inhibitor, partial curve, poor fit]
Cc1ccc(S(=O)(=O)NN=Cc2c(O)ccc3ccccc23)cc1	inactive: 0.465%	–
CCOc1ccc(-n2c(=O)c3ccccc3c3ccccc3c2=O)cc1	–	inconclusive: 50.1 µM [inhibitor, partial curve]
CCOC(=O)COc1ccc2ccccc2c1/C=C/[N+](=O)[O-]	–	inconclusive: 22.4 µM [inhibitor, single point]
CCOC(=O)c1c(NC(=O)CSc2nnnn2-c2ccccc2)sc2c1CCC(C)C2 (centres undefined)	inactive: -7.37%	–
CCN(CC)c1ccc(/C=C2/C(=O)ON=C2C)cc1	inactive: -16.1%	–
Cc1cc(Cl)ccc1OCC(=O)NCCOC(=O)Nc1sc(=S)n(C)c1C	–	inconclusive: 39.8 µM [inhibitor, single point]
Cc1cccn2c(=O)nc(SCC(=O)NCc3ccco3)nc12	–	inconclusive: 35.5 µM [inhibitor, full curve, poor fit]
COc1cc(/C=C2/C(C)=C(C#N)c3nc(N)c(C#N)c(C)c32)ccc1OCC(=O)O	–	inconclusive: 12.6 µM [inhibitor, partial curve]
CSc1nc(SCC(=O)O)c2sc3nc(-c4ccccc4)c4c(c3c2n1)CCC4	–	inconclusive: 5.97 µM [inhibitor, partial curve]
CS(=O)(=O)NCCSCc1ccco1	–	inconclusive: 56.2 µM [inhibitor, partial curve]
NNC(=O)c1cc(O)c(O)c(O)c1	inactive: -15.5% [at 57.1 µM]	–
O=C(Nc1ccc2oc(-c3cccnc3)nc2c1)c1ccc2c(c1)OCCO2	–	inconclusive: 50.1 µM [inhibitor, partial curve]
O=C(COC(=O)c1cccc(S(=O)(=O)N2CCN(c3ccccc3)CC2)c1)NCc1ccco1	–	inconclusive: 79.4 µM [inhibitor, partial curve]
Cc1ccc(C(=O)OCC(=O)c2c[nH]c3ccccc23)cc1S(=O)(=O)N1CCCCC1	–	inconclusive: 28.2 µM [inhibitor, single point]
N#Cc1cccc(NC(=O)Cn2cnc(S(=O)(=O)N3CCOCC3)c2)c1	inactive: 7.09%	–
Cc1ccc(-c2nc3s/c(=C\c4ccco4)c(=O)n3n2)cc1	inactive: -14.7% [at 57.1 µM]	–
COc1ccc(-n2c(Cn3nnc4ccccc43)n[nH]c2=S)cc1	inactive: -2.33%	–
Cc1ccc(NC(=O)c2ccccc2N2C(=O)C3C4C=CC(C5CC45)C3C2=O)cc1C (centres undefined)	–	inconclusive: 89.1 µM [inhibitor, single point]

A portion of the results above:
SMILES	activity change, negative = inhibition	Potency
O=C(COc1ccc2ccccc2c1)Nc1ccc(Cc2ccncc2)cc1	inactive: -19% [at 57.1 µM]	–
Cn1c(N)c(C(=O)COC(=O)C2CC(O)CN2S(=O)(=O)c2ccc(Cl)cc2)c(=O)n(C)c1=O (centres undefined)	inactive: 0.243%	–
Cn1c(=O)c2c(nc(Cc3ccc(N)cc3)n2C)n(C)c1=O	inactive: -4.06%	–
O=C1CCCC2=C1C(c1ccncc1)c1c(nc(SCc3ccccc3)[nH]c1=O)N2 (centres undefined)	–	inconclusive: 50.1 µM [inhibitor, partial curve, poor fit]

Later entries:

SMILES	activity change, negative = inhibition	Potency
Cc1ccc(-c2[nH]nc3c2C(c2ccoc2)C(C#N)=C(N)O3)cc1C (centres undefined)	–	inconclusive: 22.4 µM [inhibitor, partial curve, poor fit]
CC(=O)Oc1ccc(C(=O)OCC(=O)c2c(N)n(C)c(=O)n(C)c2=O)cc1OC(C)=O	–	inconclusive: 50.1 µM [inhibitor, partial curve]
CC1CN(C(=S)c2cccc([N+](=O)[O-])c2)CC(C)O1 (centres undefined)	–	inconclusive: 56.2 µM [inhibitor, single point]
COc1ccc(CCN2CC(C(=O)OC(C)C(=O)Nc3ccc(NC(C)=O)cc3)CC2=O)cc1OC (centres undefined)	–	inconclusive: 15.8 µM [inhibitor, full curve, poor fit]
COc1ccc(CN2CCNC(=O)C2CC(=O)NCCCC2CCCC2)c(F)c1 (centres undefined)	–	inconclusive: 89.1 µM [inhibitor, partial curve]
O=C(c1ccc(=O)oc1)N1CCOCC1	–	inconclusive: 39.8 µM [inhibitor, partial curve]
Cc1cccc(C)c1NC(=O)CN(C)C(=O)C1CCN(c2ncnc3sc(C)c(C)c23)CC1	–	inconclusive: 39.8 µM [inhibitor, single point]
CCC(Sc1nc2ccncc2[nH]1)C(=O)Nc1ccc(C)c(Cl)c1 (centres undefined)	inactive: -15.5%	–
ClC(Cl)(c1nnnn1-c1ccccc1)c1nnnn1-c1ccccc1	–	active: 6.31 µM
Cc1cc(=O)[nH]c(SCC(=O)NCc2ccco2)n1	–	active: 18.9 µM
O=C(Nc1cccc(S(=O)(=O)NC2=NCCC2)c1)c1cc(-c2ccco2)nc2ccccc12	–	inconclusive: 56.2 µM [inhibitor, partial curve]
O=C(Cc1ccc(S(=O)(=O)N2CCCC2)s1)NC1CCCCCC1	–	inconclusive: 56.2 µM [inhibitor, partial curve, poor fit]
CN1CCC(N(C)C(=S)NC(=O)c2cc(-c3cccc(Br)c3)nc3ccccc23)CC1	inactive: -16.2%	–
Cc1ccc(C(=O)NCCc2nnc3ccc(NCc4ccc5c(c4)OCO5)nn23)cc1	–	inconclusive: 39.8 µM [inhibitor, partial curve]
O=C(CCO)c1ccc(O)cc1	–	active: 28.2 µM
COc1ccccc1NC(=O)CSc1nnnn1-c1ccc(F)cc1	–	inconclusive: 12.6 µM [inhibitor, full curve, poor fit]
O=C(O)CCCN1C(=O)/C(=C/c2ccc(-c3nc4ccccc4s3)o2)SC1=S	–	inconclusive: 15.8 µM [inhibitor, full curve]
CCOC(=O)CCS(=O)(=O)c1nc(-c2ccccc2)cc(C(F)(F)F)n1	–	inconclusive: 79.4 µM [inhibitor, partial curve]
O=C(Nc1nc(-c2ccccn2)cs1)c1cc(Cl)ccc1[N+](=O)[O-]	–	inconclusive: 70.8 µM [inhibitor, single point]
Cc1ccc(N2C(=O)CS(=O)C(c3ccccc3)C2=O)cc1C (centres undefined)	–	active: 35.5 µM
Cc1ccc(-n2ncc3c2CC(C)(C)CC3NC(=O)CCc2cccnc2)cc1 (centres undefined)	inactive: -3.36%	–
COCc1cc(=O)[nH]c(Nc2nc(C)c3ccccc3n2)n1	inactive: -9.36% [at 57.1 µM]	–
CCOc1ccc(CNc2ncc(-c3ccccc3)n2C)cc1	–	inconclusive: 10 µM [inhibitor, full curve]
